Assay results: EPA's ToxValDB 9.5

Tested on: Rattus norvegicus
Conditions: reproduction developmental; duration: 19 days; inhalation; Sprague-Dawley

SMILES: CCCCCCCCCO [Nonanol]
- NOAEL: 150 mg/m3
